# Laboratory results: US7538241B2, “Hsp90 family protein inhibitors” (Kyowa Hakko Kogyo Co., Ltd., priority 2003, dated 2009)
# Some entries share one result that the patent states for a list of compounds.
# Target: T1, Human N-terminal recombinant Hsp90 protein (region of amino acids 9 to 236) (Homo sapiens, UniProt P07900)
# T1 construct: region of amino acids 9 to 236; made in house
# Experiment: Hsp90 protein binding assay (competition with biotinylated Radicicol)
# Conditions: at concentrations of at most 10 μmol/L
row,SMILES,inhibition of the binding of biotinylated Radicicol to the Hsp90 protein
1,"CCc1c(O)cc(O)c(-c2cccc(NC(C)=O)c2)c1CCOCC(O)CO (stereo not drawn) [Compound 204, 4-[3-(N-acetylamino)phenyl]-5-[2-(2,3-dihydroxypropoxy)ethyl]-6-ethylbenzene-1,3-diol]",at least 30%
2,"CN(CCc1ccccn1)C(=O)Cc1c(Br)c(O)cc(O)c1-c1ccccc1 [Compound 89, 2-(2-Bromo-3,5-dihydroxy-6-phenylphenyl)-N-methyl-N-[2-(pyridin-2-yl)ethyl]acetamide]",at least 30%
3,"CCc1c(O)cc(O)c(-c2cccc(C(=O)NC3CC3)c2)c1CC1O[C@H](CO)[C@@H](CO)O1 [Compound 305, 5-{[(4R,5R)-4,5-Bis(hydroxymethyl)-1,3-dioxolan-2-yl]methyl}-4-[3-(2-cyclopropylcarbamoyl)phenyl]-6-ethylbenzene-1,3-diol]",at least 30%
4,"CCc1c(O)cc(O)c(-c2ccccc2)c1CCCO [Compound 123, 6-Ethyl-5-(3-hydroxypropyl)-4-phenylbenzene-1,3-diol]",at least 30%
5,"CCc1c(O)cc(O)c(-c2ccccc2)c1CCC(O)C(CO)CO (stereo not drawn) [Compound 185, 6-Ethyl-5-[3,5-dihydroxy-4-(hydroxymethyl)pentyl]-4-phenylbenzene-1,3-diol]",at least 30%
6,"COCCc1c(C(C)=O)c(O)cc(O)c1-c1cccc(OC)c1 [Compound 116, 1-[2,4-Dihydroxy-6-(2-methoxyethyl)-5-(3-methoxyphenyl)phenyl]ethanone]",at least 30%
7,"COc1c(Br)c(O)cc(O)c1-c1ccccc1 [Compound 61, 6-Bromo-5-methoxy-4-phenylbenzene-1,3-diol]",at least 30%
8,"CCc1c(O)cc(O)c(-c2ccccc2)c1CC(O)CC(O)CO (stereo not drawn) [Compound 177, 6-Ethyl-4-phenyl-5-(2,4,5-trihydroxypentyl)benzene-1,3-diol]",at least 30%
9,"CCc1c(O)cc(O)c(-c2ccc(F)c(F)c2)c1CC1O[C@@H](CO)[C@H](CO)O1 [Compound 299, 5-{[(4S,5S)-4,5-bis(hydroxymethyl)-1,3-dioxolan-2-yl]methyl}-4-(3,4-difluorophenyl)-6-ethylbenzene-1,3-diol]",at least 30%
10,"CCc1c(O)cc(O)c(-c2cccc(OC)c2)c1CCOC [Compound 118, 6-Ethyl-5-(2-methoxyethyl)-4-(3-methoxyphenyl)benzene-1,3-diol]",at least 30%
11,"COCCc1c(C(C)=O)c(O)cc(O)c1-c1ccccc1 [Compound 92, 1-[2,4-Dihydroxy-6-(2-methoxyethyl)-5-phenylphenyl]ethanone]",at least 30%
12,"CCc1c(O)cc(O)c(-c2ccccc2)c1CCOCC(O)COCCO (stereo not drawn) [Compound 179, 6-Ethyl-5-{2-[2-hydroxy-3-(2-hydroxyethoxy)propoxy]ethyl}-4-phenylbenzene-1,3-diol]",at least 30%
13,"CCc1c(O)cc(O)c(-c2ccccc2)c1CC(O)CO (stereo not drawn) [Compound 182, 6-Ethyl-5-(2,3-dihydroxypropyl)-4-phenylbenzene-1,3-diol]",at least 30%
14,"CCc1c(O)cc(O)c(-c2ccc(F)c(C)c2)c1CC1O[C@@H](CO)[C@H](CO)O1 [Compound 300, 5-{[(4S,5S)-4,5-Bis(hydroxymethyl)-1,3-dioxolan-2-yl]methyl}-6-ethyl-4-(4-fluoro-3-methylphenyl)benzene-1,3-diol]",at least 30%
15,"CCc1c(O)cc(O)c(-c2ccc(F)c(C)c2)c1CC1O[C@H](CO)[C@@H](CO)O1 [Compound 291, 5-{[(4R,5R)-4,5-bis(hydroxymethyl)-1,3-dioxolan-2-yl]methyl}-6-ethyl-4-(4-fluoro-3-methylphenyl)benzene-1,3-diol]",at least 30%
16,"CCc1c(O)cc(O)c(-c2ccc(F)c(Cl)c2)c1CC1O[C@@H](CO)[C@H](CO)O1 [Compound 301, 5-{[(4S,5S)-4,5-Bis(hydroxymethyl)-1,3-dioxolan-2-yl]methyl}-4-(3-chloro-4-fluorophenyl)-6-ethylbenzene-1,3-diol]",at least 30%
17,"CCc1c(O)cc(O)c(-c2cccc(CCC(C)=O)c2)c1CCOCCOC [Compound 153, 4-(3-{5-Ethyl-2,4-dihydroxy-6-[2-(2-methoxyethoxy)ethyl]phenyl}phenyl)butan-2-one]",at least 30%
18,"C=CCOCCc1c(CC)c(O)cc(O)c1-c1ccccc1 [Compound 144, 5-(2-Allyloxyethyl)-6-ethyl-4-phenylbenzene-1,3-diol]",at least 30%
19,"CCc1c(O)cc(O)c(-c2ccccc2)c1CCCOCCOC [Compound 146, 6-Ethyl-5-[3-(2-methoxyethoxy)propyl]-4-phenylbenzene-1,3-diol]",at least 30%
20,"COCCc1c(Br)c(O)cc(O)c1-c1cccc(C(N)=O)c1 [Compound 117, 3-[5-Bromo-2,4-dihydroxy-6-(2-methoxyethyl)phenyl]benzamide]",at least 30%
21,"CCc1c(O)cc(O)c(-c2cccc(C(N)=O)c2)c1CC1O[C@@H](CO)[C@H](CO)O1 [Compound 288, 5-{[(4S,5S)-4,5-Bis(hydroxymethyl)-1,3-dioxolan-2-yl]methyl}-6-ethyl-4-(3-carbamoylphenyl)benzene-1,3-diol]",at least 30%
22,"CCNC(=O)Nc1cccc(-c2c(O)cc(O)c(CC)c2CCOCC(O)CO)c1 (stereo not drawn) [Compound 206, 5-[2-(2,3-Dihydroxypropoxy)ethyl]-6-ethyl-4-[3-(3-ethylureido)phenyl]benzene-1,3-diol]",at least 30%
23,"CCc1c(O)cc(O)c(-c2ccccc2)c1CCCOCC(N)=O [Compound 158, 2-[3-(2-Ethyl-3,5-dihydroxy-6-phenylphenyl)propoxy]acetamide]",at least 30%
24,"CCc1c(O)cc(O)c(-c2cccc(O)c2)c1CCOCC(O)CO (stereo not drawn) [Compound 173, 5-[2-(2,3-dihydroxypropoxy)ethyl]-6-ethyl-4-(3-hydroxyphenyl)benzene-1,3-diol]",at least 30%
25,"CCc1c(O)cc(O)c(-c2cccc(C(N)=O)c2)c1CC1O[C@H](CO)[C@@H](CO)O1 [Compound 295, 5-{[(4R,5R)-4,5-bis(hydroxymethyl)-1,3-dioxolan-2-yl]methyl}-4-(3-carbamoylphenyl)-6-ethylbenzene-1,3-diol]",at least 30%
26,"COCCOCc1c(Br)c(O)cc(O)c1-c1ccccc1 [Compound 71, 6-Bromo-5-[(2-methoxyethoxy)methyl]-4-phenylbenzene-1,3-diol]",at least 30%
27,"CCc1c(O)cc(O)c(-c2cccc(OCc3ccncc3)c2)c1CCOCC(O)CO (stereo not drawn) [Compound 192, 5-[2-(2,3-Dihydroxypropoxy)ethyl]-6-ethyl-4-[3-(pyridin-4-ylmethyloxy)phenyl]benzene-1,3-diol]",at least 30%
